Patent US5618726A, “Biodegradable azo dyes” (priority 1994, dated 1997)

The molecules below were run on Phanerochaete chrysosporium (assay: Substrate removal / decolorization by P. chrysosporium culture). Conditions: 300 ppm.
Type: cell-based
Description: Environ. Microbiol., 1981, 42:290-296), with the addition of 75 mg adenine (6-aminopurine) and 27 mg L-phenylalanine-per-liter. This addition accelerated the growth of the fungus without inhibiting ligninase activity. […] […] Cultures were incubated at 37° C. for 7 to 15 days with shaking (250 rpm). Solid agar media were also employed.

| Compound | Toxicity / inhibition of the fungus by the dye |
| --- | --- |
| Cc1cc(N=Nc2ccc(S(=O)(=O)O)cc2)cc(C)c1O [compound 3] | becomes more toxic |
| COc1cc(N=Nc2ccc(S(=O)(=O)O)cc2)cc(OC)c1O [compound 4] | do not exhibit a similar degree of inhibition |
| Cc1cc(N=Nc2ccc(S(=O)(=O)O)cc2)ccc1O [compound 5] | do not exhibit a similar degree of inhibition |
| Cc1cc(O)c(N=Nc2ccc(S(=O)(=O)O)cc2)cc1C [compound 7] | began to be toxic |
| O=S(=O)(O)c1ccc(N=Nc2cc(F)c(O)c(F)c2)cc1 [compound 12] | began to be toxic |
| O=S(=O)(O)c1ccc2c(N=Nc3ccccc3)c(O)ccc2c1 [compound 19] | began to be toxic |
| O=S(=O)(O)c1ccc(N=Nc2c(O)ccc3ccccc23)cc1 [compound 31] | began to be toxic |
